{
  "source": "patent EP0523013B1",
  "about": "“Use of benzimidazoline-2-oxo-1-carboxylic acid derivatives in the treatment of organic mental diseases” (BOEHRINGER INGELHEIM ITALIA S.p.A., priority 1991, dated 1993)",
  "test_system": "scopolamine-induced impairment of passive avoidance response",
  "test": "passive avoidance test, scopolamine-induced impairment",
  "design": "species or system Male Sprague Dawley rats",
  "conditions": "rat, in vivo",
  "experimental": "Male Sprague Dawley rats weighing 175-200 g were used. The animals were kept in a regulated environment (20 ± 1°C, 50-55% humidity and 12 hours light-dark cycle, light on at 7.00 a.m.) and maintained with standard pellet diet. The apparatus used for the passive avoidance test was composed of a dark compartment (30x30x30 cm) with a grid floor and a compartment (30x30x30 cm) illuminated from above by a 20 W daylight lamp, the 2 compartments being separated by a guillotine-type door (10x8 cm). Scrambled electric shocks were delivered to the grid floor by an isolated stimulator.\nRats were divided in groups of 10 animals. • a) Training: each rat was placed gently in the lighted compartment and 10 sec later the door was opened. As soon as the rat had moved into the dark compartment and the door had been shut, a 1.6 mA foot-shock was applied for 1 sec. The rat was immediately removed from the apparatus and returned to the home cage. • b) Retention: the retention test was carried out 24 hours later by an observer unaware of the given treatment. Each rat was placed into the lighted compartment again and the step-through latency was recorded. […] The experimental data were evaluated statistically by means of Mann Whitney-U test, comparing all treatments, including controls, with scopolamine group.",
  "data": [
    {"smiles": "CN1[C@@H]2C[C@@H](OC(=O)[C@H](CO)c3ccccc3)C[C@H]1[C@@H]1O[C@@H]12", "note": "[Scopolamine, scopolamine, reference compound]", "values": [
      {"measurement": "step-through latency in the retention test", "value": "significantly decreased"}
    ]}
  ]
}
